Experimental data reported in publication PMC6294507.
Read-outs that look alike come from different tables or passages of the source. No constants are given. Whether binding was seen depends on the method and setting. Binding seen in cells or lysates may run through a third protein. These calls come from enrichment with a bait or labelling near it, and not all partners need be listed. For some assays here: Sequences can lack the tags named with a protein.

The chains behind the UniProt entries cited, without tags or fusion partners. Where a name states a change or a piece, a line headed by the entry shows the natural chain unless it says otherwise. Residues count along the entry.
UniProt Q9BRJ7: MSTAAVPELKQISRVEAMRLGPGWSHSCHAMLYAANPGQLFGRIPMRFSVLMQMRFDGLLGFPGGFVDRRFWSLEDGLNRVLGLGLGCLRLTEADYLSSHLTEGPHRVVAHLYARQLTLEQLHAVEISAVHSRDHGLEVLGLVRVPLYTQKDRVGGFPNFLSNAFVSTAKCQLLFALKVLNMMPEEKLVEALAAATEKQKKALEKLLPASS
SDOS-eGFP: residues 6-211 of Q9BRJ7
UniProt P08238: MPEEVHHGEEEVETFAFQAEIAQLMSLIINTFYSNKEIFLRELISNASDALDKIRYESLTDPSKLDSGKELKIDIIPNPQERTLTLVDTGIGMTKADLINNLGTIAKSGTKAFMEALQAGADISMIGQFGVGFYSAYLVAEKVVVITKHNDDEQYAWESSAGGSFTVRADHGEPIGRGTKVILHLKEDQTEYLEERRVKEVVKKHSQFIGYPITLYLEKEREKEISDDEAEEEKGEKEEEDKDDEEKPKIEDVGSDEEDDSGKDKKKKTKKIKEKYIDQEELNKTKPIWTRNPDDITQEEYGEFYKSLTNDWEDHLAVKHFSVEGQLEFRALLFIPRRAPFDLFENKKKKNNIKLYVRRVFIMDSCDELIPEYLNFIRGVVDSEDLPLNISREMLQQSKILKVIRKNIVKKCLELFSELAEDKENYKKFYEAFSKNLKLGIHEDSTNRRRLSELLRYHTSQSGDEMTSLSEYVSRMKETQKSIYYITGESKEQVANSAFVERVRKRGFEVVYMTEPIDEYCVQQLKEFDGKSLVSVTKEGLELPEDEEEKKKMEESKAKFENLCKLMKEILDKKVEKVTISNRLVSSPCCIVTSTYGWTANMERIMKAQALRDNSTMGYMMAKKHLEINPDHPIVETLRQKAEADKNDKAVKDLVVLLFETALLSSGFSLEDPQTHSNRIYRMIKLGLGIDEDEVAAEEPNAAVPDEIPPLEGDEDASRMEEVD
UniProt P16401: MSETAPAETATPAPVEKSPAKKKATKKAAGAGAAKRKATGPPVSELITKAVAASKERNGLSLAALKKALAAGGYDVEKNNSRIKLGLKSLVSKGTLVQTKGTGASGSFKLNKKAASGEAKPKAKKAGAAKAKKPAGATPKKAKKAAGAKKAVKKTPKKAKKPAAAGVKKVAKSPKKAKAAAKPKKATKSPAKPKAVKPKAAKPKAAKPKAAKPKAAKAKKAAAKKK

T1: TRAP1-eGFP (human) (UniProt Q12931)
T1 sequence: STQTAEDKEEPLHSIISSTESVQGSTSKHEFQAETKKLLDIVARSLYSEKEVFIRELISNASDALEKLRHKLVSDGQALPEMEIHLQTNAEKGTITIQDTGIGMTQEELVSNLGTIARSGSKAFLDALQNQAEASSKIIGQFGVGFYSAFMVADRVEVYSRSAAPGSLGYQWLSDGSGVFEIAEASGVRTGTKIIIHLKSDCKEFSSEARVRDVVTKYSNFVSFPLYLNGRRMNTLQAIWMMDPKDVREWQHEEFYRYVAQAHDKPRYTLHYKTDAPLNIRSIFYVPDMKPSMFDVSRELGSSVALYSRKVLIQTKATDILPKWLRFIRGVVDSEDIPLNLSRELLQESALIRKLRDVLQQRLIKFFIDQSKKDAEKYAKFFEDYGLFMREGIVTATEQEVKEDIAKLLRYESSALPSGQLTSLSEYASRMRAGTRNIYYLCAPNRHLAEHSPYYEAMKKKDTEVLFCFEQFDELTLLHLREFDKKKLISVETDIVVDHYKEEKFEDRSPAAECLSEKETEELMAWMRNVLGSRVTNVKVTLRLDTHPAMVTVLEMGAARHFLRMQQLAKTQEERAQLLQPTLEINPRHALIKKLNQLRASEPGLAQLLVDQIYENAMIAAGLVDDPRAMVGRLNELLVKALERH


Key:
Test in all cases: affinity purification with mass spectrometry; eGFP-fusion proteins captured from HeLa Flp In TRex lysates on GFP-Trap agarose beads, 2 h, 4 C; lysis buffer 150 mM NaCl, 10 mM Tris-HCl pH 7.5, 1% Triton X-100, 5 mM MgCl2, 5 mM DTT; RNase A during the second wash; label-free quantitative proteomics against unfused eGFP
TRAP1-eGFP (human) [1] = target: T1, TRAP1-eGFP (human)
SDOS-eGFP (human) = SDOS-eGFP (human) (UniProt Q9BRJ7)
TRAP1-eGFP (human) [2] = target: T1, TRAP1-eGFP (human); remark: listed apart in the source

Row | Molecule | binding (TRAP1-eGFP (human) [1]) | binding (SDOS-eGFP (human)) | binding (TRAP1-eGFP (human) [2])
1 | Heat shock protein HSP 90-beta (from UniProt P08238 1-724) | binds |  | 
2 | Histone H1.5 (from UniProt P16401 1-226) | binds |  | 
3 | Protein syndesmos (endogenous SDOS) (from UniProt Q9BRJ7 1-211) | binds |  | 
4 | Polymerase delta-interacting protein 2 (protein, UniProt Q9Y2S7 52-368) SSRNRPEGKVLETVGVFEVPKQNGKYETGQLFLHSIFGYRGVVLFPWQARLYDRDVASAAPEKAENPAGHGSKEVKGKTHTYYQVLIDARDCPHISQRSQTEAVTFLANHDDSRALYAIPGLDYVSHEDILPYTSTDQVPIQHELFERFLLYDQTKAPPFVARETLRAWQEKNHPWLELSDVHRETTENIRVTVIPFYMGMREAQNSHVYWWRYCIRLENLDSDVVQLRERHWRIFSLSGTLETVRGRGVVGREPVLSKEQPAFQYSSHVSLQASSGHMWGTFRFERPDGSHFDVRIPPFSLESNKDEKTPPSGLHW |  | binds | binds
5 | Macrophage migration inhibitory factor (protein, UniProt P14174 1-115) MPMFIVNTNVPRASVPDGFLSELTQQLAQATGKPPQYIAVHVVPDQLMAFGGSSEPCALCSLHSIGKIGGAQNRSYSKLLCGLLAERLRISPDRVYINYYDMNAANVGWNNSTFA |  | binds | binds
6 | Carbamoyl-phosphate synthase [ammonia], mitochondrial (enzyme, UniProt P31327 39-1500) LSVKAQTAHIVLEDGTKMKGYSFGHPSSVAGEVVFNTGLGGYPEAITDPAYKGQILTMANPIIGNGGAPDTTALDELGLSKYLESNGIKVSGLLVLDYSKDYNHWLATKSLGQWLQEEKVPAIYGVDTRMLTKIIRDKGTMLGKIEFEGQPVDFVDPNKQNLIAEVSTKDVKVYGKGNPTKVVAVDCGIKNNVIRLLVKRGAEVHLVPWNHDFTKMEYDGILIAGGPGNPALAEPLIQNVRKILESDRKEPLFGISTGNLITGLAAGAKTYKMSMANRGQNQPVLNITNKQAFITAQNHGYALDNTLPAGWKPLFVNVNDQTNEGIMHESKPFFAVQFHPEVTPGPIDTEYLFDSFFSLIKKGKATTITSVLPKPALVASRVEVSKVLILGSGGLSIGQAGEFDYSGSQAVKAMKEENVKTVLMNPNIASVQTNEVGLKQADTVYFLPITPQFVTEVIKAEQPDGLILGMGGQTALNCGVELFKRGVLKEYGVKVLGTSVESIMATEDRQLFSDKLNEINEKIAPSFAVESIEDALKAADTIGYPVMIRSAYALGGLGSGICPNRETLMDLSTKAFAMTNQILVEKSVTGWKEIEYEVVRDADDNCVTVCNMENVDAMGVHTGDSVVVAPAQTLSNAEFQMLRRTSINVVRHLGIVGECNIQFALHPTSMEYCIIEVNARLSRSSALASKATGYPLAFIAAKIALGIPLPEIKNVVSGKTSACFEPSLDYMVTKIPRWDLDRFHGTSSRIGSSMKSVGEVMAIGRTFEESFQKALRMCHPSIEGFTPRLPMNKEWPSNLDLRKELSEPSSTRIYAIAKAIDDNMSLDEIEKLTYIDKWFLYKMRDILNMEKTLKGLNSESMTEETLKRAKEIGFSDKQISKCLGLTEAQTRELRLKKNIHPWVKQIDTLAAEYPSVTNYLYVTYNGQEHDVNFDDHGMMVLGCGPYHIGSSVEFDWCAVSSIRTLRQLGKKTVVVNCNPETVSTDFDECDKLYFEELSLERILDIYHQEACGGCIISVGGQIPNNLAVPLYKNGVKIMGTSPLQIDRAEDRSIFSAVLDELKVAQAPWKAVNTLNEALEFAKSVDYPCLLRPSYVLSGSAMNVVFSEDEMKKFLEEATRVSQEHPVVLTKFVEGAREVEMDAVGKDGRVISHAISEHVEDAGVHSGDATLMLPTQTISQGAIEKVKDATRKIAKAFAISGPFNVQFLVKGNDVLVIECNLRASRSFPFVSKTLGVDFIDVATKVMIGENVDEKHLPTLDHPIIPADYVAIKAPMFSWPRLRDADPILRCEMASTGEVACFGEGIHTAFLKAMLSTGFKIPQKGILIGIQQSFRPRFLGVAEQLHNEGFKLFATEATSDWLNANNVPATPVAWPSQEGQNPSLSSIRKLIRDGSIDLVINLPNNNTKFVHDNYVIRRTAVDSGIPLLTNFQVTKLFAEAVQKSRKVDSKSLFHYRQYSAGKAA |  | binds | binds
7 | Mitochondrial import receptor subunit TOM40 homolog (protein, UniProt O96008 1-361) MGNVLAASSPPAGPPPPPAPALVGLPPPPPSPPGFTLPPLGGSLGAGTSTSRSSERTPGAATASASGAAEDGACGCLPNPGTFEECHRKCKELFPIQMEGVKLTVNKGLSNHFQVNHTVALSTIGESNYHFGVTYVGTKQLSPTEAFPVLVGDMDNSGSLNAQVIHQLGPGLRSKMAIQTQQSKFVNWQVDGEYRGSDFTAAVTLGNPDVLVGSGILVAHYLQSITPCLALGGELVYHRRPGEEGTVMSLAGKYTLNNWLATVTLGQAGMHATYYHKASDQLQVGVEFEASTRMQDTSVSFGYQLDLPKANLLFKGSVDSNWIVGATLEKKLPPLPLTLALGAFLNHRKNKFQCGFGLTIG |  | binds | binds
8 | ATP-binding cassette sub-family F member 2 (protein, UniProt Q9UG63 1-623) MPSDLAKKKAAKKKEAAKARQRPRKGHEENGDVVTEPQVAEKNEANGRETTEVDLLTKELEDFEMKKAAARAVTGVLASHPNSTDVHIINLSLTFHGQELLSDTKLELNSGRRYGLIGLNGIGKSMLLSAIGKREVPIPEHIDIYHLTREMPPSDKTPLHCVMEVDTERAMLEKEAERLAHEDAECEKLMELYERLEELDADKAEMRASRILHGLGFTPAMQRKKLKDFSGGWRMRVALARALFIRPFMLLLDEPTNHLDLDACVWLEEELKTFKRILVLVSHSQDFLNGVCTNIIHMHNKKLKYYTGNYDQYVKTRLELEENQMKRFHWEQDQIAHMKNYIARFGHGSAKLARQAQSKEKTLQKMMASGLTERVVSDKTLSFYFPPCGKIPPPVIMVQNVSFKYTKDGPCIYNNLEFGIDLDTRVALVGPNGAGKSTLLKLLTGELLPTDGMIRKHSHVKIGRYHQHLQEQLDLDLSPLEYMMKCYPEIKEKEEMRKIIGRYGLTGKQQVSPIRNLSDGQKCRVCLAWLAWQNPHMLFLDEPTNHLDIETIDALADAINEFEGGMMLVSHDFRLIQQVAQEIWVCEKQTITKWPGDILAYKEHLKSKLVDEEPQLTKRTHNV |  |  | binds
9 | Acetyl-CoA acetyltransferase, mitochondrial (enzyme, UniProt P24752 34-427) VSKPTLKEVVIVSATRTPIGSFLGSLSLLPATKLGSIAIQGAIEKAGIPKEEVKEAYMGNVLQGGEGQAPTRQAVLGAGLPISTPCTTINKVCASGMKAIMMASQSLMCGHQDVMVAGGMESMSNVPYVMNRGSTPYGGVKLEDLIVKDGLTDVYNKIHMGSCAENTAKKLNIARNEQDAYAINSYTRSKAAWEAGKFGNEVIPVTVTVKGQPDVVVKEDEEYKRVDFSKVPKLKTVFQKENGTVTAANASTLNDGAAALVLMTADAAKRLNVTPLARIVAFADAAVEPIDFPIAPVYAASMVLKDVGLKKEDIAMWEVNEAFSLVVLANIKMLEIDPQKVNINGGAVSLGHPIGMSGARIVGHLTHALKQGEYGLASICNGGGGASAMLIQKL |  |  | binds
10 | Growth hormone-inducible transmembrane protein (protein, UniProt Q9H3K2 46-345) ATKTRIGIRRGRTGQELKEAALEPSMEKIFKIDQMGRWFVAGGAAVGLGALCYYGLGLSNEIGAIEKAVIWPQYVKDRIHSTYMYLAGSIGLTALSAIAISRTPVLMNFMMRGSWVTIGVTFAAMVGAGMLVRSIPYDQSPGPKHLAWLLHSGVMGAVVAPLTILGGPLLIRAAWYTAGIVGGLSTVAMCAPSEKFLNMGAPLGVGLGLVFVSSLGSMFLPPTTVAGATLYSVAMYGGLVLFSMFLLYDTQKVIKRAEVSPMYGVQKYDPINSMLSIYMDTLNIFMRVATMLATGGNRKK |  |  | binds
